# The supplement of paper PMC9135407
# “And” between values parts separate entries of the source, which are not always exact repeats. Equal entries are not always repeated. Structures can show the parent of a compound that is named as a salt. ± gives the standard deviation of the averaged measurements. The list shows a part of the results. Plates or batches differ in their baseline, so values are only roughly comparable.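 Culture-activated primary human stellate myofibroblasts, where regained lipid droplets signal inactivation. Value: share of Hoechst-counted cells above a per-plate Bodipy cutoff, in duplicate wells, with DMSO negative and nortriptyline positive controls on each plate. Hits: a control-normalized score above the plate's top-tenth-percentile nortriptyline wells, or one of a plate's three best wells. Final well concentrations are not given.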
# Tested on: primary human hepatic stellate cells (donor 1)
# Experiment: percent Bodipy-positive cells; higher = more lipid droplet accumulation
# Conditions: 48 h
# [1] = library stock concentration: 3.33 mM
# [2] = library stock concentration: 10 mM
# [3] = library stock concentration: 1 mM
# [4] = library stock concentration: 80 uM
# [5] = library stock concentration: 400 uM
compound,measurement,setting,value
CCOC(=O)c1ccc(NC2CCCCC2)c(N)c1 [Ferrostatin-1 (Fer-1)],percent Bodipy-positive cells,[1],47.3 ± 0.75%
same,percent Bodipy-positive cells,[2],64.1 ± 5%
CCOC(=O)C1=C(C)NC(C)=C(C(=O)OC)C1c1cccc(Cl)c1Cl (configuration not stated) [Felodipine],percent Bodipy-positive cells,,31.9 ± 3.4%
same,percent Bodipy-positive cells,[1],9.22 ± 3%
same,percent Bodipy-positive cells,library stock concentration: 5.2 mM,12.4 ± 1.2%
same,percent Bodipy-positive cells,[2],40.4% and 56.9%
C[C@H](CCC(=O)O)[C@H]1CC[C@H]2[C@@H]3C(=O)C[C@@H]4CC(=O)CC[C@]4(C)[C@H]3CC(=O)[C@]12C,percent Bodipy-positive cells,[2],8.34 ± 3.3%
C[C@H](CCC(=O)O)[C@H]1CC[C@H]2[C@@H]3C(=O)C[C@@H]4CC(=O)CC[C@]4(C)[C@H]3CC(=O)[C@]12C [Dehydrocholic acid],percent Bodipy-positive cells,,42.7 ± 17%
same,percent Bodipy-positive cells,library stock concentration: 5 mM,10.8 ± 4.6%
C[C@H](CCC(=O)O)[C@H]1CC[C@H]2[C@@H]3C(=O)C[C@@H]4CC(=O)CC[C@]4(C)[C@H]3CC(=O)[C@]12C [Sodium dehydrocholate],percent Bodipy-positive cells,library stock concentration: 4.7 mM,3.91 ± 0.22%
same,percent Bodipy-positive cells,[2],10.4 ± 0.57%
Cc1oc(S(=O)(=O)N2CCCCC2)cc1NC(=O)Nc1ccccc1,percent Bodipy-positive cells,[3],10.7 ± 2.2%
CO[C@H]1C[C@H](O[C@@H]2/C(C)=C/C[C@@H]3C[C@@H](C[C@]4(CC[C@H](C)[C@@H](C5CCCCC5)O4)O3)OC(=O)[C@@H]3C=C(C)/C(=N/O)[C@H]4OC/C(=C\C=C\[C@@H]2C)[C@]43O)O[C@@H](C)[C@@H]1O [Selamectin],percent Bodipy-positive cells,library stock concentration: 2.6 mM,4.29 ± 1.9%
same,percent Bodipy-positive cells,[2],34.7 ± 5.1%
CN1CCN(Cc2ccc(-c3cnc4[nH]cc(-c5ccc6[nH]ccc6c5)c4c3)cc2)CC1,percent Bodipy-positive cells,[4],7.45 ± 0.042%
same,percent Bodipy-positive cells,[5],19.3 ± 2.2%
same,percent Bodipy-positive cells,[2],97.9 ± 1.4%
CC(C)c1cc(C(C)C)c(CC(=O)NS(=O)(=O)Oc2c(C(C)C)cccc2C(C)C)c(C(C)C)c1 [Avasimibe],percent Bodipy-positive cells,[1],11.3 ± 4.5%
same,percent Bodipy-positive cells,[2],26.4 ± 17%
CC(C)(C)NC[C@H](O)COc1cccc2c1CCCC2=O [(-) -Levobunolol hydrochloride],percent Bodipy-positive cells,,12.7 ± 2%
CC(C)(C)NC[C@H](O)COc1cccc2c1CCCC2=O [Levobunolol hydrochloride],percent Bodipy-positive cells,library stock concentration: 6.1 mM,11.9 ± 0.57%
O=C(NNc1nc2cc(F)ccc2n2cccc12)c1cnccn1,percent Bodipy-positive cells,[1],32 ± 1.6%
same,percent Bodipy-positive cells,[2],79.5 ± 1.4%
C[N+](C)(C)CCOC(N)=O [Carbachol],percent Bodipy-positive cells,,7.66 ± 1.3%
same,percent Bodipy-positive cells,library stock concentration: 11 mM,4.54 ± 0.97%
Nc1ncn(C2OC(CO)C(O)C2O)c(=O)n1 (configuration not stated) [Azacytidine-5],percent Bodipy-positive cells,,8.65 ± 0.22%
COC(=O)/C=C/C(=O)OC [Dimethyl Fumarate],percent Bodipy-positive cells,[1],7.06 ± 0.081%
same,percent Bodipy-positive cells,[2],7.5 ± 2.1%
COC(=O)/C=C/C(=O)OC,percent Bodipy-positive cells,[2],34.63 ± 0.27%
COc1ccc(-c2oc3cc(OC)ccc3c2C(=O)c2ccc(C#N)cc2)cc1,percent Bodipy-positive cells,[2],8.13 ± 4%
O=C(NC(Cc1cc(=O)[nH]c2ccccc12)C(=O)O)c1ccc(Cl)cc1 (configuration not stated) [Rebamipide],percent Bodipy-positive cells,[1],9.93 ± 7.3%
same,percent Bodipy-positive cells,library stock concentration: 5.4 mM,6.34 ± 2.6%
same,percent Bodipy-positive cells,[2],16% and 30.4%
CCN1C(=O)C=CC1=O [N-Ethylmaleimide],percent Bodipy-positive cells,[2],100%
CCCCCC1OC1C/C=C\C/C=C\C/C=C\CCCC(=O)O (configuration not stated),percent Bodipy-positive cells,library stock concentration: 100 uM,10.4 ± 6.6%
O=C(Nc1c[nH]nc1-c1nc2ccc(CN3CCOCC3)cc2[nH]1)NC1CC1,percent Bodipy-positive cells,[5],75.6 ± 2.9%
"CCN(CC)CCOc1ccc(/C(=C(/Cl)c2ccccc2)c2ccccc2)cc1.O=C(O)CC(O)(CC(=O)O)C(=O)O [Clomiphene citrate (Z,E)]",percent Bodipy-positive cells,,85.41 ± 0.27%
O=C(O)CCCN1CCC(O[C@@H](c2ccc(Cl)cc2)c2ccccn2)CC1 [Bepotastine Besilate],percent Bodipy-positive cells,[1],6.98 ± 3.5%
same,percent Bodipy-positive cells,[2],23.3 ± 19%
O=C(Nc1ncc(SCCN2CCCC2)s1)[C@]1(c2ccc(S(=O)(=O)C3CC3)cc2)C[C@H]1C1CCCCC1,percent Bodipy-positive cells,[2],95.5 ± 6.4%
CNc1nccc(-c2cccnc2Oc2cc(C(=O)Nc3cccc(C(F)(F)F)c3)ccc2C)n1,percent Bodipy-positive cells,[2],87.8 ± 4.2%
COc1cc(C(=O)NC2CCN(C)CC2)ccc1Nc1ncc2c(n1)N(C1CCCC1)CCC(=O)N2C(C)C,percent Bodipy-positive cells,[2],95.3 ± 1.4%
Cc1ccc(S(=O)(=O)OCC(=O)Nc2ccc(C(=O)O)c(O)c2)cc1,percent Bodipy-positive cells,[1],6.76 ± 0.34%
same,percent Bodipy-positive cells,[2],16.4 ± 0.41%
C[C@H]1C[C@H]2[C@@H]3CCC4=CC(=O)C=C[C@]4(C)[C@H]3C(=O)C[C@]2(C)[C@@]1(O)C(=O)CO [Meprednisone],percent Bodipy-positive cells,[1],17.7 ± 1.8%
same,percent Bodipy-positive cells,[2],24.8 ± 19%
CC1(C)O[C@@H]2C[C@H]3[C@@H]4C[C@H](F)C5=CC(=O)CC[C@]5(C)[C@H]4[C@@H](O)C[C@]3(C)[C@]2(C(=O)CO)O1 [Flurandrenolide],percent Bodipy-positive cells,,8.24 ± 2.5%
same,percent Bodipy-positive cells,[2],32.5 ± 5.7%
"CCC(=O)OCC(=O)[C@@]1(OC(=O)CC)[C@@H](C)C[C@H]2[C@@H]3CCC4=CC(=O)C=C[C@]4(C)[C@@]3(F)[C@@H](O)C[C@@]21C [Betamethasone 17,21-dipropionate]",percent Bodipy-positive cells,library stock concentration: 4 mM,12.2 ± 0.36%
N[C@@H](Cc1ccc(O)c([N+](=O)[O-])c1)C(=O)O [Nitrotyrosine],percent Bodipy-positive cells,[3],13.1 ± 3.3%
CN1CCN(C(=O)c2nc3ccc(Cl)cc3[nH]2)CC1,percent Bodipy-positive cells,[2],13 ± 0.89%
CC1(C)C=C(CN2C/C(=C\c3ccc(F)cc3)C(=O)/C(=C/c3ccc(F)cc3)C2)C(C)(C)N1O,percent Bodipy-positive cells,[1],82 ± 7.1%
same,percent Bodipy-positive cells,[2],100%
NC(C(=O)O)c1ccc(C(=O)O)c(C(=O)O)c1 (configuration not stated),percent Bodipy-positive cells,[2],8.71 ± 1.5%
NNC(=O)c1ccncc1 [Isoniazid],percent Bodipy-positive cells,,21.9 ± 1.9%
same,percent Bodipy-positive cells,[1],13.3 ± 1.9%
same,percent Bodipy-positive cells,[2],19.6% and 16.8% and 30.9%
CN(C(=O)CCCOc1ccc2[nH]c(=O)ccc2c1)C1CCCCC1 [Cilostamide],percent Bodipy-positive cells,library stock concentration: 5.8 mM,9.56 ± 0.95%
CC(C)N(CCC(=O)c1ccc2ccccc2c1)Cc1ccccc1.Cl,percent Bodipy-positive cells,[2],99.32 ± 0.96%
O=C(O)c1cc2cc(F)ccc2[nH]1 [5-Fluoroindole-2-carboxylic acid],percent Bodipy-positive cells,[2],42.4 ± 4.5%
CCN1CCCC1CNC(=O)c1cc(S(N)(=O)=O)ccc1OC (configuration not stated) [Sulpiride],percent Bodipy-positive cells,,20 ± 2.6%
same,percent Bodipy-positive cells,library stock concentration: 5.9 mM,22 ± 3.8%
CCN1CCCC1CNC(=O)c1cc(S(N)(=O)=O)ccc1OC (configuration not stated) [(?)-Sulpiride],percent Bodipy-positive cells,[2],27.1 ± 6%
COc1ccc(-c2ccc3cc(C(=O)O)ccc3c2)cc1C12CC3CC(CC(C3)C1)C2,percent Bodipy-positive cells,[2],49.1 ± 7.6%
COc1ccc(-c2ccc3cc(C(=O)O)ccc3c2)cc1C12CC3CC(CC(C3)C1)C2 [Adapalene],percent Bodipy-positive cells,[1],11 ± 3.2%
same,percent Bodipy-positive cells,[2],10.4 ± 4%
CN1CCN(c2ccc3nc(-c4c(N)c5c(F)cccc5[nH]c4=O)[nH]c3c2)CC1 [Dovitinib (TKI-258) Dilactic Acid],percent Bodipy-positive cells,[2],88.7 ± 15%
CN1CCN(c2ccc3nc(-c4c(N)c5c(F)cccc5[nH]c4=O)[nH]c3c2)CC1,percent Bodipy-positive cells,[4],73.1 ± 0.96%
O=c1[nH]c(=O)n([C@H]2C[C@H](O)[C@@H](CO)O2)cc1I,percent Bodipy-positive cells,[2],27.6 ± 1.7%
O=c1[nH]c(=O)n([C@H]2C[C@H](O)[C@@H](CO)O2)cc1I [Idoxuridine],percent Bodipy-positive cells,,28.3 ± 1.5%
same,percent Bodipy-positive cells,[1],17.3 ± 6.9%
same,percent Bodipy-positive cells,[2],13.02 ± 0.084%

# An excerpt of these results, as tab-separated lines.
compound	measurement	setting	value
CCOC(=O)c1ccc(NC2CCCCC2)c(N)c1 [Ferrostatin-1 (Fer-1)]	percent Bodipy-positive cells	[1]	47.3 ± 0.75%
same	percent Bodipy-positive cells	[2]	64.1 ± 5%
CCOC(=O)C1=C(C)NC(C)=C(C(=O)OC)C1c1cccc(Cl)c1Cl (configuration not stated) [Felodipine]	percent Bodipy-positive cells		31.9 ± 3.4%
same	percent Bodipy-positive cells	[1]	9.22 ± 3%
same	percent Bodipy-positive cells	library stock concentration: 5.2 mM	12.4 ± 1.2%

# Part of the list above, with tabs.
compound	measurement	setting	value
COC(=O)/C=C/C(=O)OC [Dimethyl Fumarate]	percent Bodipy-positive cells	[1]	7.06 ± 0.081%
Cc1ccc(S(=O)(=O)OCC(=O)Nc2ccc(C(=O)O)c(O)c2)cc1	percent Bodipy-positive cells	[2]	16.4 ± 0.41%
